Measurements reported in US20260308108A1, “COMPOSITIONS AND METHODS FOR THE TREATMENT OF OCULAR DISORDERS” (Case Western Reserve University, priority 2023, published 2026).
Several values for one entry are separate records, joined by “and”; a condition that tells them apart may be missing. Equal entries are not always repeated. At least one compound was matched to its structure with a doubt left.

Chains of the proteins cited; added tags and fusions are not shown. Lines headed by an entry give the natural chain unless they say otherwise; changes in a name come on top.
UniProt Q28175: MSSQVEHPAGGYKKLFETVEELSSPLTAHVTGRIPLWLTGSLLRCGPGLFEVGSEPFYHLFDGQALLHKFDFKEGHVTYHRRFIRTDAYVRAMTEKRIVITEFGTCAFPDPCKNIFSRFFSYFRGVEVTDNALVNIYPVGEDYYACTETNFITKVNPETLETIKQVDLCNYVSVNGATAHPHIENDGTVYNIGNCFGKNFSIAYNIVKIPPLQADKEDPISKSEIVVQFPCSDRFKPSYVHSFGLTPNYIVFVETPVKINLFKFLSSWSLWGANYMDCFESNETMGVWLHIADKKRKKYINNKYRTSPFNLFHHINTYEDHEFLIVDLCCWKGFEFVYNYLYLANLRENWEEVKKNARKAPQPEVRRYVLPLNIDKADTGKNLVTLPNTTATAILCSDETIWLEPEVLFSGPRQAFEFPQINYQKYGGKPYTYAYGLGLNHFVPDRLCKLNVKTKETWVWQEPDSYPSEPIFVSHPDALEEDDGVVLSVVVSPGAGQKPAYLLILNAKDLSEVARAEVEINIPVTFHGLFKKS

Tests used:
[1] = test system: RPE65; settings: 10 mg/kg IP
[2] = molecular target: RPE65 (Bos taurus, UniProt Q28175); assay: RPE65 activity assay in vitro (11-cis-retinol production by bovine RPE microsomes)

Row | Compound | RPE65 inhibition in vivo (in words) [1] | potency relative to 16a [2]
1 | CC(CN)Cc1cccc(OCC2CCCCC2)c1 (stereo not drawn) [Compound 16c] | minor RPE65 inhibition 4 h after treatment, but animals were fully dark-adapted after 24 h | quadrupled
2 | CNCCC(O)c1cccc(OCC2CCCCC2)c1 (stereo not drawn) [Compound 16e, 1-(3-(Cyclohexylmethoxy)phenyl)-3-(methylamino)propan-1-ol] | large accumulation of RE accompanied by significantly reducing recovery of 11cRAL and 11cRAL and RE levels were not yet recovered and potent RPE65 inhibition and resembled that of emixustat | 
